Assay results reported in PubChem BioAssay AID504467 (National Center for Advancing Translational Sciences (NCATS), 2011).
Hit rate of the full screen: of about 330,000 compounds, about 7,700 (2.3%) were called active. This list was built around the results that the source calls inconclusive (neither active nor inactive); the mix of calls is not that of the screen. The call rests on the fitted dose curve; in most records, active means well fitted inhibition curve with a large enough effect; inconclusive means small, poorly fitted or top-dose-only effect, or effect the other way; inactive means flat fitted curve, though single readings scatter. Potencies beside an inconclusive call are fits to weak or partial responses and may not hold up.

assay: qHTS screen for small molecules that inhibit ELG1-dependent DNA repair in human embryonic kidney (HEK293T) cells expressing luciferase-tagged ELG1; settings: HEK293T ELG1-luciferase reporter, luminescence, 16 h, DNA damage induced by 5-fluorouridine; activity change, negative = inhibition: at 46.1 µM (top of the series); further: nearly all actives have a fitted effect of over 55% in size
In short: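 Reporter activity after DNA damage by 5-fluorouridine is monitored. Compound-treated cells incubate 16 hr at 37 °C, then ONE-Glo is added for 30 min before luminescence reading.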
On the % scale 0 is the no-effect control and ±100 the full control effect; potency means the concentration at half of the fitted maximal effect.

| Structure (SMILES) | Potency | activity change, negative = inhibition |
| --- | --- | --- |
| Cc1cc(C)cc(OCC(=O)NNC(=O)c2ccccn2)c1 | inconclusive: 20.6 µM [activator, single point] | – |
| c1ccc(-c2oc3ncnc(NCCN4CCOCC4)c3c2-c2ccccc2)cc1 | inconclusive: 4.61 µM [inhibitor, single point] | – |
| CCOC(=O)CCSc1cc(C)c2ccccc2n1 | – | inactive: 4.35% |
| COc1ccc(NC(=O)C2(c3ccccc3)CCCC2)cc1 | – | inactive: -13.1% |
| Cc1ccccc1OCC(=O)N1CCCCCCC1 | – | inactive: 10.4% |
| O=C(NCc1ccccc1)C1CCC(=O)N(CCCN2CCCC2=O)C1 (stereo not given) | inconclusive: 29.1 µM [activator, single point] | – |
| O=C(Nc1ccc(Cl)cc1F)c1ccc(-n2cncn2)cc1 | inconclusive: 4.61 µM [activator, partial curve] | – |
| CCN1/C(=C/C(=O)c2ccco2)Sc2ccccc21 | inconclusive: 5.8 µM [activator, full curve, poor fit] | – |
| Cc1ccc(Cl)cc1OCC(=O)NCCOC(=O)Nc1sc(=S)n(C)c1C | – | inactive: -20.1% |
| c1ccc(-c2cc3ccccc3cn2)cc1 | inconclusive: 7.3 µM [activator, partial curve] | – |
| CCCNC(=O)c1ccc(N2CCC3(CC2)CC(c2ccccc2)=NO3)c(NC(=O)c2ccco2)c1 | active: 5.8 µM | – |
| O=C(N/N=C/c1ccncc1)c1cccc(NC(=O)c2ccc(Cl)cc2)c1 | – | inactive: 9.97% |
| Cc1[nH]c2ccccc2c1C(C[N+](=O)[O-])c1cccs1 (stereo not given) | inconclusive: 11.6 µM [inhibitor, partial curve, poor fit] | – |
| O=C(CCc1nc(-c2ccccc2Cl)no1)NC1CCCC1 | – | inactive: -2.73% |
| Cc1ccc(OCC(=O)NCC2CCCO2)c(C)c1 (stereo not given) | inconclusive: 18.3 µM [activator, single point] | – |
| C/C(=N\Nc1cccc2cccnc12)c1ccccn1 | inconclusive: 1.83 µM [activator, partial curve] | – |
| O=C(N/N=C/c1ccc2c(c1)OCO2)c1cccs1 | inconclusive: 5.8 µM [activator, partial curve] | – |
| Cc1[nH]c2ccccc2c1C(O)CN1CCN(c2cccc(C(F)(F)F)c2)CC1 (stereo not given) | active: 14.6 µM | – |
| COc1cc2c(cc1OC)CN(CC(=O)Nc1ccccc1C(=O)NC1CC1)CC2 | – | inactive: -9.96% |
| C/C(CCc1oc2ccc(Cl)cc2c1-c1ccc(C)o1)=N\O | inconclusive: 32.6 µM [inhibitor, single point] | – |
| O=C(O)C1C2C=CC(C2)C1C(=O)N1CCc2ccccc21 (stereo not given) | inconclusive: 11.2 µM [activator, partial curve, poor fit] | – |
| O=C(CSc1nc2ccccc2n1S(=O)(=O)c1cccc([N+](=O)[O-])c1)NCCc1ccccc1 | inconclusive: 25.9 µM [activator, partial curve, poor fit] | – |
| CC(=O)c1ccc(N2CCN(S(=O)(=O)c3ccc4c(c3)NC(=O)CC(=O)N4)CC2)cc1 | inconclusive: 18.3 µM [activator, partial curve] | – |
| CCn1ncc(C2C(C(=O)Nc3ccc(C)cn3)=C(C)NC3=C2C(=O)CCC3)c1C (stereo not given) | – | inactive: -3.17% |

| Structure (SMILES) | Potency | activity change, negative = inhibition |
| --- | --- | --- |
| COc1ccc(NC(=O)CC2CC3CCC2C3)cn1 (stereo not given) | inconclusive: 25.9 µM [activator, single point] | – |
| CCOC(=O)c1nc(Nc2ccc(C)cc2)c2ccccc2n1 | inconclusive: 25.9 µM [inhibitor, single point] | – |
| COc1cc(/C=N/NC(=O)c2ccccn2)cc2c1OCO2 | inconclusive: 14.6 µM [activator, partial curve] | – |
| O=C(Nc1cccc(S(=O)(=O)N2CCCCC2)c1)C1CCCN1S(=O)(=O)c1ccccc1F (stereo not given) | inconclusive: 32.6 µM [inhibitor, single point] | – |
| Cc1ccc(S(=O)(=O)c2nc(NCCN(C)C)sc2Cl)cc1 | inconclusive: 23.1 µM [inhibitor, single point] | – |
| CN(C)S(=O)(=O)n1cc(/C=C(\NC(=O)c2ccccc2F)C(=O)N2CCOCC2)c2ccccc21 | inconclusive: 3.66 µM [inhibitor, partial curve, poor fit] | – |
| CSc1nc2ccccc2n1CC(=O)Nc1ccccc1 | – | inactive: -0.607% |
| O=c1c2ccccc2nnn1CSc1nc2ccccc2[nH]1 | inconclusive: 9.2 µM [activator, partial curve] | – |
| CC(C)Cn1c(N)c(C(=O)COC(=O)c2ccc(O)cc2O)c(=O)n(C)c1=O | inconclusive: 9.2 µM [inhibitor, single point] | – |
| CN(CC(=O)Nc1ccc(S(=O)(=O)N2CCCC2)cc1)Cc1cccc(Cl)c1Cl | inconclusive: 23.1 µM [inhibitor, partial curve, poor fit] | – |
| COc1ccc(NC(=O)CSc2nnc(-c3cccnc3)o2)cc1 | inconclusive: 23.1 µM [activator, partial curve, poor fit] | – |
| O=C(CN(Cc1ccccc1)S(=O)(=O)c1ccc2c(c1)OCCO2)Nc1ccc2c(c1)OCCO2 | inconclusive: 6.51 µM [inhibitor, single point] | – |
| O=C(Nc1cccc(F)c1)c1cccc(S(=O)(=O)N2CCOCC2)c1 | inconclusive: 0.206 µM [inhibitor, single point] | – |
| COc1ccc(CCNC(=O)/C=C/C(=O)O)cc1 | – | inactive: 11.6% |
| CCOc1ccccc1N1CCN(C(=O)c2c(C)noc2C)CC1 | inconclusive: 14.6 µM [activator, partial curve, poor fit] | – |
| COc1cc(C(=O)OCC(=O)NC2CC2)cc(OC)c1OC | inconclusive: 35.5 µM [activator, single point] | – |
| O=C1C=C(NCc2ccc(Cl)cc2)CC(c2ccco2)C1 (stereo not given) | inconclusive: 29.1 µM [inhibitor, single point] | – |
| COc1ccc(-c2nc3nc(N)nn3cc2C)cc1F | – | inactive: -8.54% |
| Cc1occc1C(=O)NNC(=O)c1ccc(S(=O)(=O)N(C)C)cc1 | – | inactive: 17.6% |
| COc1cccc(/C=N/c2oc(-c3ccccc3)cc2C#N)c1O | inconclusive: 16.4 µM [activator, single point] | – |
| Cc1ccc(C(=O)CSC2=NC(N)=C(C#N)C3(CCCCC3)C2C(N)=O)cc1 (stereo not given) | inconclusive: 11.2 µM [inhibitor, partial curve, poor fit] | – |
| Cc1[nH]n(-c2ccc([N+](=O)[O-])cc2)c(=O)c1C=NCCc1c(C)[nH]c2ccccc12 | active: 25.9 µM | – |
| Cc1nc(C(=O)Nc2ccccc2)sc1C1(C)CC(c2cccnc2)=NO1 (stereo not given) | inconclusive: 32.6 µM [inhibitor, single point] | – |
| c1ccc(-c2nnnn2-c2ccccc2)cc1 | – | inactive: 4.46% |

| Structure (SMILES) | Potency | activity change, negative = inhibition |
| --- | --- | --- |
| O=C(/C=C/c1ccc2c(c1)OCO2)Nc1nc(-c2ccc(F)cc2)cs1 | inconclusive: 18.4 µM [inhibitor, partial curve, poor fit] | – |
| CC(=O)c1ccc(NC(=O)C2=CC(c3cccs3)=NS(=O)(=O)N2C)cc1 | – | inactive: 5.62% |
| O=c1c2ccccc2nc(/C=C/c2ccc(O)cc2)n1CCc1ccccc1 | active: 23.1 µM | – |
| Clc1ccc(CON/C=N/c2ncnc3sccc23)cc1 | inconclusive: 7.31 µM [inhibitor, partial curve] | – |
| O=C1CCC/C(=N\NC(=O)NC2CCCCC2)C1 | inconclusive: 0.73 µM [inhibitor, full curve] | – |
| CCOC(=O)c1ccc(N[C@@H]2CCN3C(=O)c4ccccc4[C@@H]3C[C@H]2O)cc1 | inconclusive: 0.146 µM [inhibitor, single point] | – |
| Cc1cccc(/C=N/Nc2cc(N3CCOCC3)nc(N3CCOCC3)n2)c1 | active: 7.31 µM | – |
| O=C(CSc1ccccn1)Nc1ccc2c(c1)OCCO2 | inconclusive: 11.6 µM [activator, partial curve] | – |
| O=[N+]([O-])c1ccc(CSc2nnc(SCc3ccccc3)s2)cc1 | – | inactive: 4.19% |
| O=C(Nc1nonc1NC(=O)c1cccs1)c1cccs1 | active: 4.11 µM | – |
| O=C(Nc1ccccc1)c1ccccc1OCc1cccc([N+](=O)[O-])c1 | inconclusive: 29.1 µM [inhibitor, single point] | – |
| CC[C@@]12C(=O)N(c3ccc(OC)cc3)C(=O)N1[C@H](c1ccc(Cl)cc1)[C@@H]1C(=O)N(C3CCCCC3)C(=O)[C@@H]12 | – | inactive: -0.996% |
| COc1ccc(C(=O)N2CCN(C(=O)C3COc4ccccc4O3)CC2)cc1 (stereo not given) | inconclusive: 29.1 µM [inhibitor, partial curve, poor fit] | – |
| COc1ccc(-c2cn3nc(SCC(=O)NCC4CCCO4)ccc3n2)cc1 (stereo not given) | inconclusive: 2.59 µM [activator, full curve] | – |
| O=C(c1cc2nc(-c3ccco3)cc(C(F)(F)F)n2n1)N1CCN(Cc2ccccc2)CC1 | inconclusive: 29.1 µM [inhibitor, single point] | – |
| Cc1ccc(-c2csc(NC(=O)/C=C/c3ccco3)c2C(=O)O)cc1 | inconclusive: 5.8 µM [activator, partial curve] | – |
| CC(C)(C)NC(=S)NC(=O)C12CC3CCC(CC(C3)C1)C2 | – | inactive: 14.2% |
| O=C(Nc1nnc(-c2ccc3c(c2)CCCC3)o1)c1ccc(Cl)cc1Cl | – | inactive: 0.623% |
| O=C(N/N=C/c1ccc(Cl)cc1)c1ccc2c(c1)OCO2 | inconclusive: 16.4 µM [activator, partial curve] | – |
| COC(=O)c1ccc(NC(=O)Nc2ccc([N+](=O)[O-])cc2)cc1 | inconclusive: 29.1 µM [inhibitor, single point] | – |
| O=C(CNC(=O)/C(=C/c1ccccc1)NC(=O)c1ccc(Br)cc1)OCc1ccccc1 | inconclusive: 18.4 µM [activator, single point] | – |
| CC1=NN(C(=O)c2ccc(Br)cc2)C(O)(C(F)(F)OC(F)(F)F)C1 (stereo not given) | – | inactive: -0.558% |

Random excerpt: 2 compounds from above, in no set order.

| Structure (SMILES) | Potency | activity change, negative = inhibition |
| --- | --- | --- |
| O=C(c1cc2nc(-c3ccco3)cc(C(F)(F)F)n2n1)N1CCN(Cc2ccccc2)CC1 | inconclusive: 29.1 µM [inhibitor, single point] | – |
| O=C(CNC(=O)/C(=C/c1ccccc1)NC(=O)c1ccc(Br)cc1)OCc1ccccc1 | inconclusive: 18.4 µM [activator, single point] | – |
